# In the supplement of paper PMC10032668:
# The chains behind the UniProt entries cited, without tags or fusion partners.
# ANAPC7, Q9UJX3, UniProt Q9UJX3, whole entry: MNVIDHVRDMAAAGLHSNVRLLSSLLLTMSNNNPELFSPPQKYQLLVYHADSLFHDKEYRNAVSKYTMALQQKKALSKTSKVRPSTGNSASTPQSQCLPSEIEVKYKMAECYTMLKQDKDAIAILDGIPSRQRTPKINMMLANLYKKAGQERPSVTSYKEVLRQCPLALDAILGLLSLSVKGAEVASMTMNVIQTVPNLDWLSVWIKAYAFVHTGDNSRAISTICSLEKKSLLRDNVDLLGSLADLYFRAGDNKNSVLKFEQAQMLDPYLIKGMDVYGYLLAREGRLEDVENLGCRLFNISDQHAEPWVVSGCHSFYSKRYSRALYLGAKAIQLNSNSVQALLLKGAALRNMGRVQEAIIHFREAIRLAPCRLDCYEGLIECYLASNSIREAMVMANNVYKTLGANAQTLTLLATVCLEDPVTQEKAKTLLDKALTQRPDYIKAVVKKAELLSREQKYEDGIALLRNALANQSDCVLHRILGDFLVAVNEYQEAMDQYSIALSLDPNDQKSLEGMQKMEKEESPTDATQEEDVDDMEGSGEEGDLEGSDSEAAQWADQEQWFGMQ
# CAPZB, P47756, UniProt P47756, whole entry: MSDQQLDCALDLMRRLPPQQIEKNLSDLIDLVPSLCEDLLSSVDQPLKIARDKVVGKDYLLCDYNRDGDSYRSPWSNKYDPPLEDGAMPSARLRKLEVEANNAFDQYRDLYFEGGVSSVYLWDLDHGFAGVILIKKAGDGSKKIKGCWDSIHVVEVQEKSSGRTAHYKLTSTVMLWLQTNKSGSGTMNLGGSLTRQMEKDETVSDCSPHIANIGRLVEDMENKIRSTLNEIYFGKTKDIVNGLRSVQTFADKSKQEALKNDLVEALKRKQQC
# MAGOHB, Q96A72, UniProt Q96A72, whole entry: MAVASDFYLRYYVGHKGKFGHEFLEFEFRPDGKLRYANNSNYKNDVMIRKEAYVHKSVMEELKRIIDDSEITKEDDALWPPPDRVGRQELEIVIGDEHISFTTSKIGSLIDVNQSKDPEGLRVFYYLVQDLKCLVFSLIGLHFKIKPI
# U2AF2, P26368, UniProt P26368, whole entry: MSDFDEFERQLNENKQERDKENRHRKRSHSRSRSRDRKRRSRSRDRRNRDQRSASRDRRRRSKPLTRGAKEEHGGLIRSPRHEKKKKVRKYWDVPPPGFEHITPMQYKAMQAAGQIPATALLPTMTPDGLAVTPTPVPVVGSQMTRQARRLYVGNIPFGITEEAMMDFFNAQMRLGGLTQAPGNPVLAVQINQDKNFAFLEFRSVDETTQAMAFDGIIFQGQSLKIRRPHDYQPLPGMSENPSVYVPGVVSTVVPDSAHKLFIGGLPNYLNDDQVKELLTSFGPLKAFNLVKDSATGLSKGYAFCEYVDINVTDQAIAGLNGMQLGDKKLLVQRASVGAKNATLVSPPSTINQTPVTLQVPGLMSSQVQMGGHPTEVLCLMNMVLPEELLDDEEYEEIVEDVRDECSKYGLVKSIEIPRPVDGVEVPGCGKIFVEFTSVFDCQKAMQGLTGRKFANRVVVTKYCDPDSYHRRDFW
# ANAPC1, Q9H1A4, UniProt Q9H1A4, whole entry: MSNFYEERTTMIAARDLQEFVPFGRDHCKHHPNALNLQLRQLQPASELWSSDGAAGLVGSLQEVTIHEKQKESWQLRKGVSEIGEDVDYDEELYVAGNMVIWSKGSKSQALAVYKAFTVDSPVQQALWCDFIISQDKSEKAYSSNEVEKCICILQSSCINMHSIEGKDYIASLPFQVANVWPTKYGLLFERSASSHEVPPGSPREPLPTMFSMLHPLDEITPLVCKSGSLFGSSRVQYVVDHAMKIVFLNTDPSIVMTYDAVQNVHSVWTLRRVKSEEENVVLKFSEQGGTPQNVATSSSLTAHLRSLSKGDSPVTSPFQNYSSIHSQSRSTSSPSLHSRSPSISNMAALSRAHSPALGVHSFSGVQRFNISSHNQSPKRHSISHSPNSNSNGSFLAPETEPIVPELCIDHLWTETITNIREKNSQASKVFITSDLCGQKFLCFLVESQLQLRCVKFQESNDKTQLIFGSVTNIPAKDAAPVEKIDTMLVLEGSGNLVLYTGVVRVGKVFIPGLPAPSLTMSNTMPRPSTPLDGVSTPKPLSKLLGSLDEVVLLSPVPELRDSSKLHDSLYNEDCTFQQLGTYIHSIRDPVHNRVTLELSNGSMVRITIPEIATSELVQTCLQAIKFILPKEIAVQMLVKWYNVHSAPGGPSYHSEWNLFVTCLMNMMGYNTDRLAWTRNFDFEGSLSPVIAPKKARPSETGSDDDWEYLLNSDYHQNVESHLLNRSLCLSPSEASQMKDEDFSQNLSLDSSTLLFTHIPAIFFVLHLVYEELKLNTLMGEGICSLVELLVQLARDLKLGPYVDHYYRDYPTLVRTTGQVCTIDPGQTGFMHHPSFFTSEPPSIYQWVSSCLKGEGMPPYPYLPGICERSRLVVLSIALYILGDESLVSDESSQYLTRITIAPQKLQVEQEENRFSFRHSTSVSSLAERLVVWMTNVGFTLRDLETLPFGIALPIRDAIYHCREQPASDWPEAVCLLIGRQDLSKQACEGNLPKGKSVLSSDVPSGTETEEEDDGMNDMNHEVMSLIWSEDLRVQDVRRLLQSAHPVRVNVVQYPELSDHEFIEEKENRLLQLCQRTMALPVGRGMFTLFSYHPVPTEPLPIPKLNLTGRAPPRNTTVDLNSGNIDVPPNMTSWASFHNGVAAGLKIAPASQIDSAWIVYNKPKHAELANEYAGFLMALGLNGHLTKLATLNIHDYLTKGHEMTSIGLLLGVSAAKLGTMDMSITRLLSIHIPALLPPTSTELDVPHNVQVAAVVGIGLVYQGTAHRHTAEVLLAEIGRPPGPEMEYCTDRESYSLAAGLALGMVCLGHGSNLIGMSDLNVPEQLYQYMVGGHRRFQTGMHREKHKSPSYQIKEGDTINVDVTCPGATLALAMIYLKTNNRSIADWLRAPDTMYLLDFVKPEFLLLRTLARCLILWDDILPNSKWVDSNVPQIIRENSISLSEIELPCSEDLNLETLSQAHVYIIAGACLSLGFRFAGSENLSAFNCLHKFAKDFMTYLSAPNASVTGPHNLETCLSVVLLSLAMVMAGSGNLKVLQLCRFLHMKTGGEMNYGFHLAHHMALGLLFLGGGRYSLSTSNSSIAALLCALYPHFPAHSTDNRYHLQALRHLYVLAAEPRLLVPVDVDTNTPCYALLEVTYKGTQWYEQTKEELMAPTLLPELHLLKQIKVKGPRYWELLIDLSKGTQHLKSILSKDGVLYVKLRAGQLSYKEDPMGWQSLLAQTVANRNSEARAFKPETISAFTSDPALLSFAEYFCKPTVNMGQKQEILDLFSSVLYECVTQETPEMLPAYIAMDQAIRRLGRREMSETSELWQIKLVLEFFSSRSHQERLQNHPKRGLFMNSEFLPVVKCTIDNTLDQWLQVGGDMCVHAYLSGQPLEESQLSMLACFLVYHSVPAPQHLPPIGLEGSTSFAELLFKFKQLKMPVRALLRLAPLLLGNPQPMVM
# LARP4B, Q92615, UniProt Q92615, whole entry: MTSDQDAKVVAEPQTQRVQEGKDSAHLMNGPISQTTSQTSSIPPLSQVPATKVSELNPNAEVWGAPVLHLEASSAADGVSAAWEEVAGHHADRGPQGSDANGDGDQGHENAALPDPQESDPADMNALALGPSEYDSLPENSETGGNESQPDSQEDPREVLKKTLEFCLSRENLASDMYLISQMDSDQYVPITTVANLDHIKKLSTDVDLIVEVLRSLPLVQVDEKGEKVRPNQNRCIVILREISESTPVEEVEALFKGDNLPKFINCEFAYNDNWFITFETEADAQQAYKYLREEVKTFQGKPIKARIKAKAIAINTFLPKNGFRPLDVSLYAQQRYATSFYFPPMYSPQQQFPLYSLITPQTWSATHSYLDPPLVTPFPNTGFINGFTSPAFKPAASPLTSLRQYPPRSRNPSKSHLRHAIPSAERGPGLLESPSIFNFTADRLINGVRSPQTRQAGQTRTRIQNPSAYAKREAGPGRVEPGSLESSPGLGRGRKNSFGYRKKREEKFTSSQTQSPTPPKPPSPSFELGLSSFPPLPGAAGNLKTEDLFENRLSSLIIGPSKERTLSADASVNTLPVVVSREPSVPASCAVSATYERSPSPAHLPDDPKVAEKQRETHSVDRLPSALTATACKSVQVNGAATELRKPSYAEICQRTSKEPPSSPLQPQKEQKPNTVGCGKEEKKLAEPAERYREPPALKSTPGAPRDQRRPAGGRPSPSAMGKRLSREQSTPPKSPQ
# SNRPG, P62308, UniProt P62308, whole entry: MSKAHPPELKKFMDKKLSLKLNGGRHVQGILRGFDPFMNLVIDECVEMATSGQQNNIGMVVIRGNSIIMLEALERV
# SNRPD3, P62318, UniProt P62318, whole entry: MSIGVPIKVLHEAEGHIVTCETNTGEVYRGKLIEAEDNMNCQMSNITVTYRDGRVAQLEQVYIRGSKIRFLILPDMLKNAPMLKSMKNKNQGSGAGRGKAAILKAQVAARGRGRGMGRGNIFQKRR
# The other results are listed elsewhere or left out. Only hits are listed; about a third recur on repeated control peptides.
# Tests used:
# Assay in all cases: PRISMA enrichment of interactor (LFQ) in peptide spot vs all other peptide spots (log2 fold change); higher = stronger / more specific binding of the interactor to the peptide
# ANAPC7, Q9UJX3 = target: ANAPC7, Q9UJX3
# Method: (§1)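 PRISMA: 15-aa overlapping tiles (offset 8 aa) of 60 microproteins, plus SOS1/GLUT1 control peptides, were spot-synthesized on cellulose membranes in triplicate. Membranes were incubated with benzonase-treated HEK293T lysate, and bound proteins were identified by LC-MS/MS with LFQ. Enrichment is the log2 fold change of each protein in one spot versus all other spots. Only interactors passing the significance cutoff are listed.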
# CAPZB, P47756 = target: CAPZB, P47756
# Method: as §1
# CDCA7L, Q96GN5 = target: CDCA7L, Q96GN5
# Method: as §1
# CPS1, P31327 = target: CPS1, P31327
# Method: as §1
# MAGOHB, Q96A72 = target: MAGOHB, Q96A72
# Method: as §1
# MRPL9, Q9BYD2 = target: MRPL9, Q9BYD2
# Method: as §1
# NME1-NME2 = target: NME1-NME2
# Method: as §1
# PRDX4, Q13162 = target: PRDX4, Q13162
# Method: as §1
# RPP30, P78346 = target: RPP30, P78346
# Method: as §1
# TAF15, Q92804 = target: TAF15, Q92804
# Method: as §1
# TIMM8A, O60220 = target: TIMM8A, O60220
# Method: as §1
# TRMU, O75648 = target: TRMU, O75648
# Method: as §1
# U2AF2, P26368 = target: U2AF2, P26368
# Method: as §1
# WRNIP1, Q96S55 = target: WRNIP1, Q96S55
# Method: as §1
# ANAPC1, Q9H1A4 = target: ANAPC1, Q9H1A4
# Method: as §1
# CYC1, P08574 = target: CYC1, P08574
# Method: as §1
# DDX19A, Q9NUU7 = target: DDX19A, Q9NUU7
# Method: as §1
# DECR2, Q9NUI1 = target: DECR2, Q9NUI1
# Method: as §1
# GNG12, Q9UBI6 = target: GNG12, Q9UBI6
# Method: as §1
# GTF3C3, Q9Y5Q9 = target: GTF3C3, Q9Y5Q9
# Method: as §1
# STOM, P27105 = target: STOM, P27105
# Method: as §1
# ANKHD1, Q8IWZ3 = target: ANKHD1, Q8IWZ3
# Method: as §1
# AP1B1, Q10567 = target: AP1B1, Q10567
# Method: as §1
# GEMIN2, O14893 = target: GEMIN2, O14893
# Method: as §1
# ITCH, Q96J02 = target: ITCH, Q96J02
# Method: as §1
# LARP4B, Q92615 = target: LARP4B, Q92615
# Method: as §1
# LAS1L, Q9Y4W2 = target: LAS1L, Q9Y4W2
# Method: as §1
# PSIP1, O75475 = target: PSIP1, O75475
# Method: as §1
# SDHB, P21912 = target: SDHB, P21912
# Method: as §1
# SNF8, Q96H20 = target: SNF8, Q96H20
# Method: as §1
# SNRPG, P62308 = target: SNRPG, P62308
# Method: as §1
# UBTF, P17480 = target: UBTF, P17480
# Method: as §1
# CCDC88A, Q3V6T2 = target: CCDC88A, Q3V6T2
# Method: as §1
# COPS2, P61201 = target: COPS2, P61201
# Method: as §1
# [1] = substrate: CS, O75390
# Method: as §1
# HERC2, O95714 = target: HERC2, O95714
# Method: as §1
# MRFAP1, Q9Y605 = target: MRFAP1, Q9Y605
# Method: as §1
# PAFAH1B3, Q15102 = target: PAFAH1B3, Q15102
# Method: as §1
# RCL1, Q9Y2P8 = target: RCL1, Q9Y2P8
# Method: as §1
# SLC25A4, P12235 = target: SLC25A4, P12235
# Method: as §1
# SNRPD3, P62318 = target: SNRPD3, P62318
# Method: as §1
# TMEM177, Q53S58 = target: TMEM177, Q53S58
# Method: as §1
# ZNF275, Q9NSD4 = target: ZNF275, Q9NSD4
# Method: as §1
binder,measurement,setting,value
MYRFRSQLFTGISAA [IFRD1],PRISMA enrichment of interactor (log2),"ANAPC7, Q9UJX3",7.77
same,PRISMA enrichment of interactor (log2),"CAPZB, P47756",4.87
same,PRISMA enrichment of interactor (log2),"CDCA7L, Q96GN5",8.72
same,PRISMA enrichment of interactor (log2),"CPS1, P31327",5.47
same,PRISMA enrichment of interactor (log2),"MAGOHB, Q96A72",4.41
same,PRISMA enrichment of interactor (log2),"MRPL9, Q9BYD2",5.62
same,PRISMA enrichment of interactor (log2),NME1-NME2,8.94
same,PRISMA enrichment of interactor (log2),"PRDX4, Q13162",5
same,PRISMA enrichment of interactor (log2),"RPP30, P78346",4.32
same,PRISMA enrichment of interactor (log2),"TAF15, Q92804",5.34
same,PRISMA enrichment of interactor (log2),"TIMM8A, O60220",8.32
same,PRISMA enrichment of interactor (log2),"TRMU, O75648",3.85
same,PRISMA enrichment of interactor (log2),"U2AF2, P26368",7.32
same,PRISMA enrichment of interactor (log2),"WRNIP1, Q96S55",4.22
SWCRRADARLLDTCR [CTD-2366F13.1],PRISMA enrichment of interactor (log2),"ANAPC1, Q9H1A4",4.76
same,PRISMA enrichment of interactor (log2),"CYC1, P08574",4.86
same,PRISMA enrichment of interactor (log2),"DDX19A, Q9NUU7",7.18
same,PRISMA enrichment of interactor (log2),"DECR2, Q9NUI1",4.85
same,PRISMA enrichment of interactor (log2),"GNG12, Q9UBI6",4.03
same,PRISMA enrichment of interactor (log2),"GTF3C3, Q9Y5Q9",5.82
same,PRISMA enrichment of interactor (log2),"STOM, P27105",7.66
PGLAMEKAEPASQWV [RP11-432J24.5_2],PRISMA enrichment of interactor (log2),"ANKHD1, Q8IWZ3",5.84
same,PRISMA enrichment of interactor (log2),"AP1B1, Q10567",4.96
same,PRISMA enrichment of interactor (log2),"GEMIN2, O14893",4.29
same,PRISMA enrichment of interactor (log2),"ITCH, Q96J02",7.11
same,PRISMA enrichment of interactor (log2),"LARP4B, Q92615",5.37
same,PRISMA enrichment of interactor (log2),"LAS1L, Q9Y4W2",4.68
same,PRISMA enrichment of interactor (log2),"PSIP1, O75475",4.95
same,PRISMA enrichment of interactor (log2),"SDHB, P21912",5.93
same,PRISMA enrichment of interactor (log2),"SNF8, Q96H20",4.68
same,PRISMA enrichment of interactor (log2),"SNRPG, P62308",7.71
same,PRISMA enrichment of interactor (log2),"UBTF, P17480",5.34
TGLNTILHFRKRTRS [LINC01560],PRISMA enrichment of interactor (log2),"ANAPC7, Q9UJX3",7.52
same,PRISMA enrichment of interactor (log2),"CCDC88A, Q3V6T2",4.2
same,PRISMA enrichment of interactor (log2),"COPS2, P61201",5.87
same,PRISMA enrichment of interactor (log2),[1],4.39
same,PRISMA enrichment of interactor (log2),"HERC2, O95714",4.65
same,PRISMA enrichment of interactor (log2),"MRFAP1, Q9Y605",4.18
same,PRISMA enrichment of interactor (log2),"PAFAH1B3, Q15102",4.43
same,PRISMA enrichment of interactor (log2),"RCL1, Q9Y2P8",4.13
same,PRISMA enrichment of interactor (log2),"SLC25A4, P12235",4.32
same,PRISMA enrichment of interactor (log2),"SNRPD3, P62318",5.81
same,PRISMA enrichment of interactor (log2),"TMEM177, Q53S58",5.97
same,PRISMA enrichment of interactor (log2),"ZNF275, Q9NSD4",5.71

# Laid out differently: entries from further up
binder | measurement | setting | value
SWCRRADARLLDTCR [CTD-2366F13.1] | PRISMA enrichment of interactor (log2) | STOM, P27105 | 7.66
PGLAMEKAEPASQWV [RP11-432J24.5_2] | PRISMA enrichment of interactor (log2) | ANKHD1, Q8IWZ3 | 5.84
same | PRISMA enrichment of interactor (log2) | AP1B1, Q10567 | 4.96
same | PRISMA enrichment of interactor (log2) | GEMIN2, O14893 | 4.29
